# From patent publication US4835251A (Genetech, Inc., priority 1986, dated 1989)
# Test: peptide synthesis
# Conditions: oxidative folding step, incorporation of B-chain
substance,measurement,value
H2(B 33 A24) B Lys^4 B Ala^25,oxidative folding yield,20.3%
H2(B33 A24)A pyro-Glu^1 B Lys^4 B Ala^25,oxidative folding yield,9.3%
H2(B2-33 A24)A pyro-Glu^1 B Lys^4 B Ala^25,oxidative folding yield,18.9%
H2(B2-33 A24) B Lys^4 B Ala^25,oxidative folding yield,40.3%
